Assay [1] addresses T1, GST fused wild type zebrafish Mypt1 1-300 (KVKF) (zebrafish) (UniProt Q6DRG7).
T1 sequence: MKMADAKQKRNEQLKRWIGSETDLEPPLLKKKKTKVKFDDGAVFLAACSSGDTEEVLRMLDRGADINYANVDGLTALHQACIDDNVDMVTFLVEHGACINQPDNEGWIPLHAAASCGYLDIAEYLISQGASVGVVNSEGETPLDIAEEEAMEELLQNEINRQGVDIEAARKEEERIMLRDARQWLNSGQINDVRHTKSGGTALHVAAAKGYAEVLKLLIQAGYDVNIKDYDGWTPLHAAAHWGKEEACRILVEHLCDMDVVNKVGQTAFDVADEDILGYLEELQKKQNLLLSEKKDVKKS
Briefly: pull-down; purified GST or GST-Mypt1 1-300 proteins (increasing amounts) incubated with HEK293T lysates in NETN buffer (20 mM Tris-HCl pH 8.0, 100 mM NaCl, 1 mM EDTA, 0.5% NP-40), sedimented with glutathione beads, blotted with anti-GFP; only the target purified.

Sequences of proteins named here, by UniProt entry; tags and fusion partners are left off. A change or cut given only in a name is not applied to a line headed by its entry.
UniProt A0A8M1N207: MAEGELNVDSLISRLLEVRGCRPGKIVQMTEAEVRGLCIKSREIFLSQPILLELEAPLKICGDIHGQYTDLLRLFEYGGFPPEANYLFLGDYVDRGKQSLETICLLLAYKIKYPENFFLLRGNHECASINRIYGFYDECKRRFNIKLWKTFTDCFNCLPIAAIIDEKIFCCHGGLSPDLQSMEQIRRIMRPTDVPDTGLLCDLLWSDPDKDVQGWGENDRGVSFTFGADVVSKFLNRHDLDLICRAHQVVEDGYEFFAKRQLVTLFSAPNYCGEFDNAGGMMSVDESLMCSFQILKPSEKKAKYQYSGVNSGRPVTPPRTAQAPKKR
UniProt Q1JPZ8: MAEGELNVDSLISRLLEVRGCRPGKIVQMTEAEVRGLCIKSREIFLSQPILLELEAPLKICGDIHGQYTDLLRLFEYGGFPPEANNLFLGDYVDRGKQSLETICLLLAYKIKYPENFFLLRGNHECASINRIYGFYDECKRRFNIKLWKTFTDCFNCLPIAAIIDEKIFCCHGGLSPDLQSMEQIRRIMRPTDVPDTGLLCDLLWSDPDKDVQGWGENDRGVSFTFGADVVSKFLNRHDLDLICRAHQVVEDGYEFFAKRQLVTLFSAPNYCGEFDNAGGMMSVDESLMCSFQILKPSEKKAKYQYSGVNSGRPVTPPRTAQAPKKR

Assay [2] concerns the target T2, GST fused zebrafish Mypt1 1-300 mutant (KMKF), sq181 allele (zebrafish) (UniProt Q6DRG7).
T2 sequence: T1 sequence with V36M
The description is as above.

For assay [3], the target named is T3, Myc-tagged zebrafish Mypt1, KAKA mutant (null) (zebrafish) (UniProt Q6DRG7).
T3 sequence: T1 sequence with V36A, F38A
Briefly: co-IP; Myc-Mypt1 and GFP-PP1beta or GFP co-expressed in HEK293T, lysed in NETN buffer, IP with anti-myc, blotted with anti-GFP and anti-myc.

Positions count from the first letter of the chain named. No constants are given. Whether binding was seen depends on the method and setting. In cells and extracts the contact can be indirect. For part of these data: Binding can be weak; no strength is given. Sequences can lack the tags named with a protein.

Take “GFP-tagged zebrafish PP1Ba (protein phosphatase 1 beta paralog a, product of ppp1cba) (from UniProt A0A8M1N207) (enzyme)”: the binding entry in assay [1] is on record as “binds”; in assay [2], “binds weakly”; in assay [3], “no binding”.
The like results for “GFP-tagged zebrafish PP1Bb (protein phosphatase 1 beta paralog b, product of ppp1cbb) (from UniProt Q1JPZ8) (enzyme)” were, in that order, “binds”, “binds weakly” and “no binding”.

The values are drawn from paper PMC3770619.
